# Measurements reported in PMC9958131 (Nature Communications, 2023).
# Several values for one entry are separate records, joined by “and”; a condition that tells them apart may be missing. Equal entries are not always repeated.
# Assays:
# cathepsins B, S, and H = assay: Proteolytic mapping (ProtMap) of native and citrullinated autoantigens by cathepsins B, S, and H with LFQ-MS; assay type: biochemical, human; conditions: for # changed residues: cathepsins BSH, pH 5.0, 4 h, 37 °C; for # changed peptides Cr (created) / # changed peptides De (destroyed): q <= 0.05 and >= twofold
# Protocol: Prior to proteolytic mapping, citrullinated antigens were generated by incubating recombinant human antigens—hnRNP A2/B1 (RA33; custom-made as previously described by in ref. [24]), fibrinogen (Cayman Chemical), and vimentin (PeproTech)—with Sf9-purified peptidylarginine deiminase 2 or 4 (PAD2 or PAD4; Inova) at a 17:1 mass ratio in citrullination buffer (100 mM Tris, 1 mM DTT, 5 mM CaCl2, pH 7.5) for 4 h at 37 °C. Native antigens were diluted in the same buffer without PAD enzymes and without incubation at 37 °C to prevent degradation. Citrullination was confirmed by anti-peptidylcitrulline (clone F95, EMD Millipore) immunoblotting. Native and citrullinated antigen pools were split into four 15 µg replicates per condition before digestion (except hnRNP A2/B1, which was digested in double-volume replicates of three and later split into two each, total n = 6, prior to MS) by cathepsins B, S, and H (Millipore Sigma). Digestions were incubated in digestion buffer (citrate phosphate buffer, 4 mM DTT, 1 mM EDTA, pH 5.0) for 4 h at 37 °C. Fibrinogen and vimentin were digested at a 60:1 antigen:cathepsin mass ratio per cathepsin, and hnRNP A2/B1 was digested at a 150:1 antigen:cathepsin mass ratio per cathepsin to achieve full digestion of the protein. Digestion was confirmed by Coomassie Blue staining, and the remaining samples were centrifuged through a 10-kDa-spin filter (Microcon, Millipore) to remove undigested protein fragments. The resulting peptide repertoires were then analyzed by LFQ–MS.
# Prior to MS, the samples were reduced and alkylated by incubating in 10 mM Tris (2-Carboxyethyl) phosphine hydrochloride (TCEP, v/v) and 50 mM chloroacetamide (CAA, v/v) for 1 h at room temperature. The samples were then desalted using C18 StageTips (3 M Empore) after acidifying with 1% trifluoroacetic acid (TFA). The peptide solution was vacuum-dried and stored at ‒80 °C. The peptide samples were analyzed on an Orbitrap Fusion Lumos Tribrid mass spectrometer interfaced with an Ultimate 3000 RS Autosampler nanoflow liquid chromatography system (Thermo Scientific). The dried peptides were reconstituted in 15 µL of 0.5% formic acid (FA) and then loaded onto a trap column (Acclaim™ PepMap™ 100 LC C18, 5 μm, 100 μm × 2 cm, Thermo Scientific) at a flow rate of 8 μL/min. Peptides were separated on an analytical column (Easy-Spray™ PepMap™ RSLC C18, 2 μm, 75 μm × 50 cm, Thermo Scientific) at a flow rate of 0.3 μL/min using a linear gradient with mobile phases consisting of 0.1% FA in water and in 95% acetonitrile (ACN) for 120 min. The mass spectrometer was operated in data-dependent acquisition (DDA) mode. The MS1 (precursor ions) scan range for a full survey scan was acquired from 300 to 1800 m/z in the top speed setting with a resolution of 120,000 at an m/z of 200. The AGC target for MS1 was set as 1 × 10^6, and the maximum injection time was 100 milliseconds. The most intense ions with charge states of 2–5 were isolated in a 3-s cycle, fragmented using higher-energy collisional dissociation (HCD) fragmentation with 32% normalized collision energy, and detected at a mass resolution of 50,000 at an m/z of 200. The AGC target for MS/MS (fragments) was set as 5 × 10^4, and the ion filling time was 100 milliseconds. The precursor isolation window was set to 1.6 m/z with a 0.4 m/z offset. The dynamic exclusion was set to 30 s, and singly charged ions were rejected. Internal calibration was carried out using the lock mass option (m/z 445.1200025) from ambient air[59]–[61].
# Proteome Discoverer (version 2.4.1.15, Thermo Scientific) was used for the identification and quantitation of proteins. During MS/MS preprocessing, the top 10 peaks in each window of 100 m/z were selected for database search. […]
# recombinant human PAD2 = assay: Citrullination site mapping by mass spectrometry after PAD2 citrullination; assay type: biochemical; conditions: PAD2 condition
# recombinant human PAD4 = assay: Citrullination site mapping by mass spectrometry after PAD4 citrullination; assay type: biochemical; conditions: PAD4 condition
# [1] = share of sequence citrullinated
substance,measurement,setting,value
"Vimentin: recombinant human vimentin (PeproTech), RA autoantigen; native or citrullinated by PAD2 or PAD4",Change Score - PAD2,"cathepsins B, S, and H; Fig. 3e, native vs PAD2-citrullinated protein",53.9634
same,Change Score - PAD4,"cathepsins B, S, and H; Fig. 3e, native vs PAD4-citrullinated protein",21.7391
same,changed peptides (%) Cr (created),"cathepsins B, S, and H; PAD2-citrullinated vs native",42.38%
same,changed peptides (%) De (destroyed),"cathepsins B, S, and H; PAD2-citrullinated vs native",11.59%
same,changed residues (%),"cathepsins B, S, and H; PAD2-citrullinated vs native",36.48%
same,# changed residues,"cathepsins B, S, and H; PAD2-citrullinated vs native",170.00
same,# changed peptides Cr (created),"cathepsins B, S, and H; PAD2-citrullinated vs native",139
same,# changed peptides De (destroyed),"cathepsins B, S, and H; PAD2-citrullinated vs native",38
same,changed peptides (%) Cr (created),"cathepsins B, S, and H; PAD4-citrullinated vs native",17.08%
same,changed peptides (%) De (destroyed),"cathepsins B, S, and H; PAD4-citrullinated vs native",4.66%
same,changed residues (%),"cathepsins B, S, and H; PAD4-citrullinated vs native",18.67%
same,# changed residues,"cathepsins B, S, and H; PAD4-citrullinated vs native",87.00
same,# changed peptides Cr (created),"cathepsins B, S, and H; PAD4-citrullinated vs native",55
same,# changed peptides De (destroyed),"cathepsins B, S, and H; PAD4-citrullinated vs native",15
same,PAD2 change score (antigen processing change score),"cathepsins B, S, and H; percentage of all ProtMap peptides significantly changed between native and PAD2-citrullinated samples",53.96 and 53.9634
same,PAD4 change score (antigen processing change score),"cathepsins B, S, and H; percentage of all ProtMap peptides significantly changed between native and PAD4-citrullinated samples",21.74 and 21.7391
same,# citrulline residues,recombinant human PAD2,26
same,citrullination (%),recombinant human PAD2; [1],5.58%
same,# citrulline residues,recombinant human PAD4,30
same,citrullination (%),recombinant human PAD4; [1],6.44%
